According to patent US8071119B2, “Controlled release implantable dispensing device and method” (Sustained Nano Systems LLC, priority 2007, dated 2011):
At least one structure is not confirmed: it was looked up by name or label, or the drawing left a doubt.

Experiment: in vitro release and disintegration of dexamethasone discs in pH 7.4 PBS
Format: physicochemical
Conditions: both discs (about 16,000 psi and hyper-compressed)

C[C@@H]1C[C@H]2[C@@H]3CCC4=CC(=O)C=C[C@]4(C)[C@@]3(F)[C@@H](O)C[C@]2(C)[C@@]1(O)C(=O)CO [dexamethasone]
in vitro release profile of dexamethasone (FIG. 4): very moderate initial burst release of dexamethasone which becomes a pseudo-first order release after one day
